Results on eleven molecules are retold here after PMC11077381.

By UniProt entry, the sequences of proteins in these tests, tags left out.
UniProt O00429: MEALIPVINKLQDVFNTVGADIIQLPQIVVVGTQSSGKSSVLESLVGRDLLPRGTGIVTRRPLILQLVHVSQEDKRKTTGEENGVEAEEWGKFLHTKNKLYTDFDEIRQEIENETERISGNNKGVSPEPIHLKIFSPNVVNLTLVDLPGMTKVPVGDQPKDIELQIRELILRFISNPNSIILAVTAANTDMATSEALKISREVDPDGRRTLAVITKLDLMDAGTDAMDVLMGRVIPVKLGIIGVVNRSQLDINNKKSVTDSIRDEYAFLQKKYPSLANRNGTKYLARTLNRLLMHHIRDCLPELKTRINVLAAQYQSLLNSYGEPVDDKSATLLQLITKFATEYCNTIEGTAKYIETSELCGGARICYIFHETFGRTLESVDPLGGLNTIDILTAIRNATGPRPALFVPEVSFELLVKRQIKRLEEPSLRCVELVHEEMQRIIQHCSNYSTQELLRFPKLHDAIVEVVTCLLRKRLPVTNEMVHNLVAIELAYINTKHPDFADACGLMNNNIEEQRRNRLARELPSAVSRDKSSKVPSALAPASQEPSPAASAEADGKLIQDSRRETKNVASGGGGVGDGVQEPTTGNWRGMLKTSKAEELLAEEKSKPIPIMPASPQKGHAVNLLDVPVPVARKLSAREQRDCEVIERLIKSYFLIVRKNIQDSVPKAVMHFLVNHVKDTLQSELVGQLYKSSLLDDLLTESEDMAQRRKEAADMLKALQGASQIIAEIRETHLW
UniProt Q8K1M6: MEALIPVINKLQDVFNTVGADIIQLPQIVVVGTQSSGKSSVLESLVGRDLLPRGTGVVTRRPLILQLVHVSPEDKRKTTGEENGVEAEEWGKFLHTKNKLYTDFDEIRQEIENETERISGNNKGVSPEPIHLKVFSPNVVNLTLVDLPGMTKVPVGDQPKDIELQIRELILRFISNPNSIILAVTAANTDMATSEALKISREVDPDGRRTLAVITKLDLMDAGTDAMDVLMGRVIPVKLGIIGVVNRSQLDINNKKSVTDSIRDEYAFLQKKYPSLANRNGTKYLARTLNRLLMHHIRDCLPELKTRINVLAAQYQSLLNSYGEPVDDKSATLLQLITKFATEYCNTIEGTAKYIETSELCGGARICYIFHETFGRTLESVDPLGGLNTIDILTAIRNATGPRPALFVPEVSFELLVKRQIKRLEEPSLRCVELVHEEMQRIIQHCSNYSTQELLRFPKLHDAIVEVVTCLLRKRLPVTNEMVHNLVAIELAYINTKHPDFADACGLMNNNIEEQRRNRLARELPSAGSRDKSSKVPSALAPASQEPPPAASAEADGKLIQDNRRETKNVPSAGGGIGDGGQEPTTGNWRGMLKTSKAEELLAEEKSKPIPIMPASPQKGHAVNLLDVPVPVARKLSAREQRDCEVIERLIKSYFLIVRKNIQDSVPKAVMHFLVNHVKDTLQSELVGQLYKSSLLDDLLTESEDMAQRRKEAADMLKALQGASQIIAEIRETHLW
UniProt Q13546: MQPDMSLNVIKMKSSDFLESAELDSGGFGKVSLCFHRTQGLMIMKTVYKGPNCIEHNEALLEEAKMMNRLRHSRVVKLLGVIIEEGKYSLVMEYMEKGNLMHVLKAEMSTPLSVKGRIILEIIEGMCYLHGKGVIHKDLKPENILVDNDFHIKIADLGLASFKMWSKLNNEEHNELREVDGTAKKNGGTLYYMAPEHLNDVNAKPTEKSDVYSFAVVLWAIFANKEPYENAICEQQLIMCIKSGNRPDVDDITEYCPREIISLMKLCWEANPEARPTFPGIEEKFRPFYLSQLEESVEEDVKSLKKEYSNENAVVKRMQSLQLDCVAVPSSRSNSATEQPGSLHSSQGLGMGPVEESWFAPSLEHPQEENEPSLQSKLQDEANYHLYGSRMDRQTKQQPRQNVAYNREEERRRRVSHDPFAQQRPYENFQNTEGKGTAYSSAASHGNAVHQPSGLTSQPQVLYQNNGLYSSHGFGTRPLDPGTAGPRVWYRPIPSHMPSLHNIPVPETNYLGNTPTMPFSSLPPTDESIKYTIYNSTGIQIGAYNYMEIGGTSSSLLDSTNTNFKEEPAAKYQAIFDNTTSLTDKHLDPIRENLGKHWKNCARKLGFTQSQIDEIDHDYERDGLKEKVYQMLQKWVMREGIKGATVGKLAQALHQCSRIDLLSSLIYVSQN
UniProt Q9DCC8: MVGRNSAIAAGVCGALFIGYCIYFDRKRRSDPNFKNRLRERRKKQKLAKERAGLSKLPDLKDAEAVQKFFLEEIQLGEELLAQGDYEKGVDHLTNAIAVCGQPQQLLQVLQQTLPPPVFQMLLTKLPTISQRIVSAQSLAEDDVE
UniProt Q13158: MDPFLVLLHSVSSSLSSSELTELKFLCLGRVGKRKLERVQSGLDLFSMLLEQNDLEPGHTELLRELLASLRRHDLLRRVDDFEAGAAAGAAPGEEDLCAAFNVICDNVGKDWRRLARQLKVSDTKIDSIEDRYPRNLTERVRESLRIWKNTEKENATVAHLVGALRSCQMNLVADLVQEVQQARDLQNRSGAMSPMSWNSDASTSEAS
UniProt Q14790: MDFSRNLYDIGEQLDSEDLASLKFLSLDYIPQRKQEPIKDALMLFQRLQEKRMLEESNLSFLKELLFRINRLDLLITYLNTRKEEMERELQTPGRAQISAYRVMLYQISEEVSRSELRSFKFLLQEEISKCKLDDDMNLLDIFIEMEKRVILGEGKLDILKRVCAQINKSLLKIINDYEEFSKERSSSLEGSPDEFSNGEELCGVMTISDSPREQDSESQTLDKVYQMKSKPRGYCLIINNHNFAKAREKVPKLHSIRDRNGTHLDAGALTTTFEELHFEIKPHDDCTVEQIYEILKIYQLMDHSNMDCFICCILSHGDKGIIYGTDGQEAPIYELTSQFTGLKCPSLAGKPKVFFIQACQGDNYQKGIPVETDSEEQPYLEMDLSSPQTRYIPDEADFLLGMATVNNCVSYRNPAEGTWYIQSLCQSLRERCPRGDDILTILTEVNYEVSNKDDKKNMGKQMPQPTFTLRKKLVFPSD
UniProt O89110: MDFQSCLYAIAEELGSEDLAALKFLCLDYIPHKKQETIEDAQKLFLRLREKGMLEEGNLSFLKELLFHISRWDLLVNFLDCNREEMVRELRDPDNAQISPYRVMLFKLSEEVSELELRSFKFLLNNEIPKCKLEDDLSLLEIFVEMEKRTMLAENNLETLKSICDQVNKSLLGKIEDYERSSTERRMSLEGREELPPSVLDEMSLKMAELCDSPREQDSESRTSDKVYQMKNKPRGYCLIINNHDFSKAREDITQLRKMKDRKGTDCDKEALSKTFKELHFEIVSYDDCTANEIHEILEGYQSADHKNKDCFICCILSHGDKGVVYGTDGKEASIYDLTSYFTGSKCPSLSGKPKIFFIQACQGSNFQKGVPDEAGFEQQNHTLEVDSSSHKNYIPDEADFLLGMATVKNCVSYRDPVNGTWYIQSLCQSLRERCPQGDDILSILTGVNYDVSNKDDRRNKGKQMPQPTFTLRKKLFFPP
UniProt Q8BGV8: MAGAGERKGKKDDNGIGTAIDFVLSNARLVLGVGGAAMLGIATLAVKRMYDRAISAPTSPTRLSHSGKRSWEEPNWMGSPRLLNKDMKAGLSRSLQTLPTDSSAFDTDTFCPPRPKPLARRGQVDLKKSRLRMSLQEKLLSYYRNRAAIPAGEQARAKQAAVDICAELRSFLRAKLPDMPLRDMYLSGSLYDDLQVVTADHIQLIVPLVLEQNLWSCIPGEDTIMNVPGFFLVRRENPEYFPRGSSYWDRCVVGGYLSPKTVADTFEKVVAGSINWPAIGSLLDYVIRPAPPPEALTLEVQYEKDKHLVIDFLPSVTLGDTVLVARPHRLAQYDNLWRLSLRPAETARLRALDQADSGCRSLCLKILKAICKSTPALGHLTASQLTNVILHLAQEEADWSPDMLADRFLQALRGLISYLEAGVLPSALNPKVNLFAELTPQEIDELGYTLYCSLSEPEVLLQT

These are yes or no findings as the source states them, for the method shown. Binding seen in cells or lysates may run through a third protein. Some entries that bind do so weakly or less than the wild type.

Assay [1] addresses dynamin-related protein 1 (Drp1), human (human (endogenous in GES-1)) (UniProt O00429). In words: co-IP; endogenous proteins in GES-1 cell lysates; cells transfected with vector or shFADD and treated with vehicle or TNF-α (80 ng/ml, 8 h); Pierce Coimmunoprecipitation Kit, western blotting.
Assay [2] addresses dynamin-related protein 1 (Drp1), mouse (mouse (endogenous in primary gastric epithelial cells)) (UniProt Q8K1M6). In words: co-IP; endogenous proteins in lysates of primary gastric epithelial cells from SO mice and mice with PVL (some treated with IFX or Nec-1); Pierce Coimmunoprecipitation Kit, antibody overnight at 4 °C, G/A agarose beads 3 h at room temperature, western blotting. (Immunoblotting shows a protein as a band on a membrane.)

Assay [3] deals with T1, receptor-interacting serine/threonine-protein kinase 1 (RIPK1), mouse (mouse (endogenous in primary gastric epithelial cells)) (UniProt Q60855).
T1 sequence: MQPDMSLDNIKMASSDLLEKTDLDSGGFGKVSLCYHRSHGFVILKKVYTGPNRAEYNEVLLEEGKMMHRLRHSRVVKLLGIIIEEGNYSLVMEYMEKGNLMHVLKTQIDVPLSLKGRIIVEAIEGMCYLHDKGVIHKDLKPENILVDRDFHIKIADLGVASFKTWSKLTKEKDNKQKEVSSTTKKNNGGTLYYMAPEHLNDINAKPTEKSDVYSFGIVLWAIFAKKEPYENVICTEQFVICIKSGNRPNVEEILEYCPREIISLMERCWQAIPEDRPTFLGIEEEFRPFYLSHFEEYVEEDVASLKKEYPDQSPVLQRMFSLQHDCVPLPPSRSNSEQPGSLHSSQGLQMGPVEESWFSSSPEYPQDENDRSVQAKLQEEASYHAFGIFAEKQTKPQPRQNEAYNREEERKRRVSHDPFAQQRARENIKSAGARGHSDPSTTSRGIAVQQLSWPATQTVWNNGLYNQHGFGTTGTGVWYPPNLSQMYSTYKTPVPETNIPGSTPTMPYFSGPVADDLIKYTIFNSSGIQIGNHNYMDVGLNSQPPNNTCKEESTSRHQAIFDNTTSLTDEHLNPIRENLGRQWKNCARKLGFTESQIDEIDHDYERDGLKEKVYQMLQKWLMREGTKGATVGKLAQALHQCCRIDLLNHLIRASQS
The description is as above.

Assay [4] deals with receptor-interacting serine/threonine-protein kinase 1 (RIPK1), human (human (endogenous in GES-1)) (UniProt Q13546). The assay is described as follows: co-IP; endogenous proteins in GES-1 cell lysates; cells transfected with vector or shFADD and treated with vehicle or TNF-α (80 ng/ml, 8 h); Pierce Coimmunoprecipitation Kit, western blotting.
Assay [5] addresses dynamin-related protein 1 (Drp1), mouse (mouse (endogenous in primary gastric epithelial cells)) (UniProt Q8K1M6). In words: co-IP; endogenous proteins in isolated mitochondrial fractions of primary epithelial cells from SO mice and mice with PVL; anti-Drp1 or anti-Fis1 antibody, western blotting.
Assay [6] deals with TOMM20, mouse (mouse (endogenous in primary gastric epithelial cells)) (UniProt Q9DCC8). In words: co-IP; endogenous proteins in lysates of primary gastric epithelial cells from SO mice and mice with PVL (some treated with IFX or Nec-1); Pierce Coimmunoprecipitation Kit, antibody overnight at 4 °C, G/A agarose beads 3 h at room temperature, western blotting.

With “Fas-associated protein with death domain (FADD), human (from UniProt Q13158 1-208)”, the binding result in assay [1] is on record as “binds”. Still for that read-out and setting: the result for “caspase-8, human (from UniProt Q14790 1-479)” reads “binds”. Take “caspase-8, mouse (from UniProt O89110 1-480)”: the binding result in assay [2] and in assay [3] was “binds” each time.

As for “dynamin-related protein 1 (Drp1), human (from UniProt O00429 1-736)”, in assay [4], the binding result is listed as “binds”.

Turning to “dynamin-related protein 1 (Drp1), mouse (from UniProt Q8K1M6 1-736)”, in assay [3], the binding entry is on record as “binds”. With “mitochondrial dynamics protein 51 (Mid51), mouse (from UniProt Q8BGV8 1-463)”, the binding entry in assay [5] is given as “binds”.

B1: mitochondrial dynamics protein 49 (Mid49), mouse (protein, UniProt Q5NCS9 1-454)
chain: MAEFSQKQRKQSGSEGLGSVVDFLLANARLVLGVGGAAVLGIATLAVKRLIDRATSPPDEDDTKGDSWKELSLLRATSPQKPQPPPAAFSQPLATGSPSPSVPVEPTPIHSPTTPKFSTIAPLCLTFQERLLAFERKHVITPEAHVTLAKQLAGDIALELQAYLRSKFPELPFGALVPGGPLYDGLQAGTAEHVRLLAPLELEPGLWSLVPGVDTVAREPRCWAVRRTQLEFHPRGCSPWDRFLVGGYLSSRVLLELLRKALSASVNWPAIGSLLGCLIWPDVASEELLLKVQHECLEFTLAVLMVVPGASTDDRLLLAWPLEGLASNLWLQDLYPVETARLRALDDQDAGTRRRLLLLLCGICRGHPALVRLGWSHLTQVVLHLGEEEVAWTEEALGERFLQALEFLVGSLEQASLPCHFNPSVNLLGNFREEEIDDIGYVLYSGLQVPESLF
Turning to B1, in assay [5], the binding result was “binds”.

B2: NADPH oxidase 2 (NOX2), mouse (protein, UniProt Q61093 1-570)
chain: MGNWAVNEGLSIFVILVWLGLNVFLFINYYKVYDDGPKYNYTRKLLGSALALARAPAACLNFNCMLILLPVCRNLLSFLRGSSACCSTRIRRQLDRNLTFHKMVAWMIALHTAIHTIAHLFNVEWCVNARVGISDRYSIALSDIGDNENEEYLNFAREKIKNPEGGLYVAVTRLAGITGIVITLCLILIITSSTKTIRRSYFEVFWYTHHLFVIFFIGLAIHGAERIVRGQTAESLEEHNLDICADKIEEWGKIKECPVPKFAGNPPMTWKWIVGPMFLYLCERLVRFWRSQQKVVITKVVTHPFKTIELQMKKKGFKMEVGQYIFVKCPKVSKLEWHPFTLTSAPEEDFFSIHIRIVGDWTEGLFNACGCDKQEFQDAWKLPKIAVDGPFGTASEDVFSYEVVMLVGAGIGVTPFASILKSVWYKYCDNATSLKLKKIYFYWLCRDTHAFEWFADLLQLLETQMQERNNANFLSYNIYLTGWDESQANHFAVHHDEEKDVITGLKQKTLYGRPNWDNEFKTIASEHPNTTIGVFLCGPEALAETLSKQSISNSESGPRGVHFIFNKENF
For B2, the binding entry in assay [6] is listed as “binds”.

B3: Fas-associated protein with death domain (FADD), mouse (protein, UniProt Q61160 1-205)
chain: MDPFLVLLHSLSGSLSGNDLMELKFLCRERVSKRKLERVQSGLDLFTVLLEQNDLERGHTGLLRELLASLRRHDLLQRLDDFEAGTATAAPPGEADLQVAFDIVCDNVGRDWKRLARELKVSEAKMDGIEEKYPRSLSERVRESLKVWKNAEKKNASVAGLVKALRTCRLNLVADLVEEAQESVSKSENMSPVLRDSTVSSSETP
With B3, the binding result in assay [2] and in assay [3] was “binds” each time.

B4: mitochondrial fission factor (Mff), mouse (protein, UniProt Q6PCP5 1-291)
chain: MAEISRIQYEMEYTEGISQRMRVPEKLKVAPPNADLEQEFQDGVPNASVIMQVPERIVVTGNNEDISFSRPADLDLIQSTPFKPLALKTPPRVLTLSERPLDFLDLERPLPTPQSEESRAVGRLKRERSMSENAVRQNGQLVRNDSIVTPSPPQARVCPPHMLPEDGANLSSARGILSLIQSSTRRAYQQILDVLDENRRPVLRGGSAAATSNPHHDNVRYGISNLDAAIEGASDDMTVVDAASLRRQIIKLNRRLQLLEEENKERAKREMVMYSITVAFWLLNSWLWFRR
For B4, in assay [5], the binding entry is “binds”.

B5: fission protein 1 (Fis1), mouse (protein, UniProt Q9CQ92 1-152)
chain: MEAVLNELVSVEDLKNFERKFQSEQAAGSVSKSTQFEYAWCLVRSKYNEDIRRGIVLLEELLPKGSKEEQRDYVFYLAVGNYRLKEYEKALKYVRGLLQTEPQNNQAKELERLIDKAMKKDGLVGMAIVGGMALGVAGLAGLIGLAVSKSKS
For the molecule B5, the binding result in assay [5] and in assay [2] was “binds” each time.
